{"source": "PubChem BioAssay AID1508588 (Peter MacCallum Cancer Centre, 2020)", "screen": "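Which gene losses make BRAF-mutant melanoma cells more responsive to vemurafenib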 (primary screen)", "cells": "human WM266.4 melanoma cells (BRAF V600 mutant)", "reagents": "siRNA pool against human genes, 40 nM", "time to read-out": "96 h from transfection to read-out", "challenge": "vemurafenib 300 nM (about IC25), added 48 h after transfection, for 48 h; comparison arm got DMSO vehicle only", "measured": "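Cell gain (DAPI nuclei at end minus before drug, mean of two replicates) and medium lactate by absorbance per cell, both as ratio to non-targeting siRNA, also grouped into fold-change classes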", "reading the numbers": "cell gain with vemurafenib: higher = more cell gain than with non-targeting siRNA; lactate per cell with vemurafenib: higher = more lactate made per cell", "rule for the call": "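a knock-down counts as enhancing when its fold-change classes with vehicle and with vemurafenib, taken together, show a stronger drug effect on cell gain or lactate per cell; exact class pairs not stated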", "meaning of the calls": "active = enhances vemurafenib effect; inactive = no enhancement seen", "note": "Here is a random part of about 18,000 reagents. Of all reagents, 790 (4.4%) got an active call. 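Calls rest on a combination of fold-change classes in drug and vehicle arms, not all shown here.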"}
{"gene":"ZNF775 (zinc finger protein 775)","PubChem SID":"SID152147048","cell gain with vemurafenib":0.43,"lactate per cell with vemurafenib":1.57,"activity call":"inactive"}
{"gene":"SNRPG (small nuclear ribonucleoprotein polypeptide G)","PubChem SID":"SID152151683","cell gain with vemurafenib":0.03,"lactate per cell with vemurafenib":0.73,"activity call":"inactive"}
{"gene":"PPP2R1B (protein phosphatase 2 scaffold subunit Abeta)","PubChem SID":"SID152152420","cell gain with vemurafenib":0.34,"lactate per cell with vemurafenib":0.82,"activity call":"inactive"}
{"gene":"FBXL3 (F-box and leucine rich repeat protein 3)","PubChem SID":"SID134316694","cell gain with vemurafenib":0.64,"lactate per cell with vemurafenib":0.76,"activity call":"inactive"}
{"gene":"CATIP (ciliogenesis associated TTC17 interacting protein)","PubChem SID":"SID134326855","cell gain with vemurafenib":1.11,"lactate per cell with vemurafenib":0.66,"activity call":"inactive"}
{"gene":"HOXC6 (homeobox C6)","PubChem SID":"SID135622212","cell gain with vemurafenib":0.41,"lactate per cell with vemurafenib":1,"activity call":"inactive"}
{"gene":"AURKC (aurora kinase C)","PubChem SID":"SID152150186","cell gain with vemurafenib":0.51,"lactate per cell with vemurafenib":0.8,"activity call":"inactive"}
{"gene":"S100P (S100 calcium binding protein P)","PubChem SID":"SID134310372","cell gain with vemurafenib":0.15,"lactate per cell with vemurafenib":0.2,"activity call":"inactive"}
{"gene":"USP19 (ubiquitin specific peptidase 19)","PubChem SID":"SID152147392","cell gain with vemurafenib":0.76,"lactate per cell with vemurafenib":0.48,"activity call":"inactive"}
{"gene":"CPAP (centrosome assembly and centriole elongation protein)","PubChem SID":"SID152150476","cell gain with vemurafenib":0.22,"lactate per cell with vemurafenib":1.31,"activity call":"inactive"}
{"gene":"PINX1 (PIN2 (TERF1) interacting telomerase inhibitor 1)","PubChem SID":"SID135623647","cell gain with vemurafenib":0.97,"lactate per cell with vemurafenib":0.38,"activity call":"inactive"}
{"gene":"VCAN (versican)","PubChem SID":"SID134320082","cell gain with vemurafenib":0.44,"lactate per cell with vemurafenib":1.15,"activity call":"inactive"}
{"gene":"BOLA2B (bolA family member 2B)","PubChem SID":"SID135625558","cell gain with vemurafenib":0.66,"lactate per cell with vemurafenib":1.29,"activity call":"inactive"}
{"gene":"LPAR4 (lysophosphatidic acid receptor 4)","PubChem SID":"SID134311000","cell gain with vemurafenib":0.59,"lactate per cell with vemurafenib":0.66,"activity call":"inactive"}

Next part; the last 3 above are carried over.
{"gene":"VCAN (versican)","PubChem SID":"SID134320082","cell gain with vemurafenib":0.44,"lactate per cell with vemurafenib":1.15,"activity call":"inactive"}
{"gene":"BOLA2B (bolA family member 2B)","PubChem SID":"SID135625558","cell gain with vemurafenib":0.66,"lactate per cell with vemurafenib":1.29,"activity call":"inactive"}
{"gene":"LPAR4 (lysophosphatidic acid receptor 4)","PubChem SID":"SID134311000","cell gain with vemurafenib":0.59,"lactate per cell with vemurafenib":0.66,"activity call":"inactive"}
{"gene":"RPS6KA5 (ribosomal protein S6 kinase A5)","PubChem SID":"SID135620863","cell gain with vemurafenib":0.25,"lactate per cell with vemurafenib":1.31,"activity call":"inactive"}
{"gene":"SKOR2 (SKI family transcriptional corepressor 2)","PubChem SID":"SID135625423","cell gain with vemurafenib":0.98,"lactate per cell with vemurafenib":0.72,"activity call":"inactive"}
{"gene":"FIGNL2 (fidgetin like 2)","PubChem SID":"SID135624882","cell gain with vemurafenib":0.77,"lactate per cell with vemurafenib":1.08,"activity call":"inactive"}
{"gene":"MRPL23 (mitochondrial ribosomal protein L23)","PubChem SID":"SID134317359","cell gain with vemurafenib":0.29,"lactate per cell with vemurafenib":1.02,"activity call":"inactive"}
{"gene":"IBTK (inhibitor of Bruton tyrosine kinase)","PubChem SID":"SID134327653","cell gain with vemurafenib":0.58,"lactate per cell with vemurafenib":1.38,"activity call":"inactive"}
{"gene":"PGAP3 (post-GPI attachment to proteins phospholipase 3)","PubChem SID":"SID134321813","cell gain with vemurafenib":0.63,"lactate per cell with vemurafenib":0.66,"activity call":"inactive"}
{"gene":"MIR9-1HG (MIR9-1 host gene)","PubChem SID":"SID152154652","cell gain with vemurafenib":0.76,"lactate per cell with vemurafenib":1.1,"activity call":"inactive"}
{"gene":"FLCN (folliculin)","PubChem SID":"SID152156257","cell gain with vemurafenib":0.27,"lactate per cell with vemurafenib":1.41,"activity call":"inactive"}
{"gene":"PARM1 (prostate androgen-regulated mucin-like protein 1)","PubChem SID":"SID135623943","cell gain with vemurafenib":0.37,"lactate per cell with vemurafenib":0.22,"activity call":"inactive"}
{"gene":"NAT14 (N-acetyltransferase 14 (putative))","PubChem SID":"SID134314242","cell gain with vemurafenib":1.1,"lactate per cell with vemurafenib":0.44,"activity call":"inactive"}
{"gene":"ZNF573 (zinc finger protein 573)","PubChem SID":"SID134320605","cell gain with vemurafenib":0.32,"lactate per cell with vemurafenib":1.46,"activity call":"inactive"}
{"gene":"TIGD3 (tigger transposable element derived 3)","PubChem SID":"SID135623335","cell gain with vemurafenib":-0.03,"lactate per cell with vemurafenib":1.32,"activity call":"inactive"}
{"gene":"POSTN (periostin)","PubChem SID":"SID152156063","cell gain with vemurafenib":0.79,"lactate per cell with vemurafenib":0.5,"activity call":"inactive"}
{"gene":"PPAN-P2RY11 (PPAN-P2RY11 readthrough)","PubChem SID":"SID135625685","cell gain with vemurafenib":0.78,"lactate per cell with vemurafenib":1.21,"activity call":"inactive"}
{"gene":"SLC28A2","PubChem SID":"SID152155319","cell gain with vemurafenib":0.5,"lactate per cell with vemurafenib":1.23,"activity call":"inactive"}
{"gene":"BTN2A2 (butyrophilin subfamily 2 member A2)","PubChem SID":"SID152150261","cell gain with vemurafenib":0.72,"lactate per cell with vemurafenib":0.52,"activity call":"inactive"}
{"gene":"PAQR4 (progestin and adipoQ receptor family member 4)","PubChem SID":"SID152154715","cell gain with vemurafenib":0.32,"lactate per cell with vemurafenib":1.27,"activity call":"inactive"}
{"gene":"OCIAD2 (OCIA domain containing 2)","PubChem SID":"SID152154769","cell gain with vemurafenib":0.7,"lactate per cell with vemurafenib":0.73,"activity call":"inactive"}
{"gene":"EXOC3L1 (exocyst complex component 3 like 1)","PubChem SID":"SID152153430","cell gain with vemurafenib":0.6,"lactate per cell with vemurafenib":1.23,"activity call":"inactive"}
{"gene":"TBC1D29P (TBC1 domain family member 29, pseudogene)","PubChem SID":"SID152151897","cell gain with vemurafenib":0.47,"lactate per cell with vemurafenib":1.17,"activity call":"inactive"}
{"gene":"TAFA4 (TAFA chemokine like family member 4)","PubChem SID":"SID152156337","cell gain with vemurafenib":0.67,"lactate per cell with vemurafenib":0.62,"activity call":"inactive"}
{"gene":"SLC9A3","PubChem SID":"SID134312670","cell gain with vemurafenib":0.46,"lactate per cell with vemurafenib":0.96,"activity call":"inactive"}
{"gene":"ROPN1B (rhophilin associated tail protein 1B)","PubChem SID":"SID152148433","cell gain with vemurafenib":1.26,"lactate per cell with vemurafenib":0.86,"activity call":"inactive"}
{"gene":"RBBP4 (RB binding protein 4, chromatin remodeling factor)","PubChem SID":"SID134316429","cell gain with vemurafenib":0.72,"lactate per cell with vemurafenib":0.34,"activity call":"inactive"}
{"gene":"POLRMT (RNA polymerase mitochondrial)","PubChem SID":"SID152156708","cell gain with vemurafenib":0.57,"lactate per cell with vemurafenib":1.26,"activity call":"inactive"}
{"gene":"BMP4 (bone morphogenetic protein 4)","PubChem SID":"SID135622080","cell gain with vemurafenib":0.59,"lactate per cell with vemurafenib":1.49,"activity call":"inactive"}
